Test results reported in the supplement of paper PMC3334620.
Whole data set: some 33,000 sequences, median “E-score (-0.5 to 0.5)” near -8e-05, cut for the highest 2% near 0.23. Some of the results follow.

target: T1, Nrg2 (UniProt P38082); experiment: PBM E-score (8-mer binding enrichment) (E-score (-0.5 to 0.5)); higher = stronger / more preferred TF binding; settings: protein concentration: 100 nM; construct: GST-full length
T1 sequence: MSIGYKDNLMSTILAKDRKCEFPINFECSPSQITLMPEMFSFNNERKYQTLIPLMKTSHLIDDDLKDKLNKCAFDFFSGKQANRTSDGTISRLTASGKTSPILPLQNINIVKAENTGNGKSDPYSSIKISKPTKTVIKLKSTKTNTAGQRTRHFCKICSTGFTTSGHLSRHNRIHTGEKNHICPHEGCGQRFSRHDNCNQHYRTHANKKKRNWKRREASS
Summary of the method: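 Full-length yeast transcription factors or their DNA-binding domains, GST-tagged and expressed with PURExpress, were applied at about 100-200 nM to universal all-10-mer Agilent arrays. These arrays had been made double-stranded by primer extension on fresh or once-stripped slides. Detection used fluorescent anti-GST, normalisation used masliner, and E-scores for ungapped eight-base words pooled with reverse complements came from the Universal PBM Analysis Suite.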

Row | Sequence | PBM E-score
1 | GAACAGAA | 0.0366
2 | CCTTAAGA | 0.0838
3 | ATATAGAG | -0.069
4 | CAGAATCG | -0.0128
5 | ACCTCCTA | -0.264
6 | AGTTACAC | 0.031
7 | GCAGGATA | 0.00604
8 | AGTTGGAT | 0.00499
9 | CGACATAC | 0.0964
10 | GACGGCAC | -0.243
11 | CGCAGTGC | -0.121
12 | TCAACAGA | 0.0444
13 | ACGTATCG | -0.0544
14 | AGCGAGAA | -0.0328
15 | ACGTGCTC | -0.148
16 | ATACTAAC | 0.136
17 | ACGGCTCA | 0.0324
18 | CAGAAGCA | 0.0277
19 | ACGTACTG | 0.0327
20 | CCCGGGCG | -0.142
21 | CACGTAGG | -0.156
22 | CGGAATTC | -0.0171
23 | CTTATTAC | 0.128
24 | ACCGTGCC | -0.0394
25 | ACTGCTGG | -0.0922

Row | Sequence | PBM E-score
26 | CGTGCACC | -0.0971
27 | GATCACCC | -0.0149
28 | CTGCGAGA | -0.263
29 | ACCTACTG | -0.126
30 | ACAATTCA | -0.0411
31 | ATGTATTC | 0.16
32 | ACACCTGC | -0.0423
33 | TCCTGTAA | 0.0125
34 | CTCGGCCA | 0.104
35 | AAAGTTTG | 0.0906
36 | ATACAGCG | -0.0502
37 | CTTATAAC | 0.091
38 | GCTCAGTA | -0.0523
39 | ACGAGTAA | 0.244
40 | CTACCCAC | -0.14
41 | AACAACTA | 0.0186
42 | TCCAGCGA | -0.0087
43 | GCAACTAC | 0.0322
44 | CGAGGAGC | -0.137
45 | TAGAACAA | -0.00331
46 | GTTACCGA | -0.123
47 | CTCTATGC | -0.0268
48 | CACGACTA | -0.107
49 | GCTAGCCA | -0.196
50 | CACGGGCC | -0.157

Row | Sequence | PBM E-score
51 | AGGGGCAC | -0.111
52 | GTCCGAAC | 0.0315
53 | CGCGTATA | -0.129
54 | CGGATTAA | -0.00468
55 | CCGTGGAC | -0.0272
56 | CACAAACG | 0.144
57 | AGTTCAGG | 0.0281
58 | CGGGATAA | 0.0879
59 | AGTGGACA | 0.0593
60 | CCTTTGGC | -0.0852
61 | ATCTAGCG | -0.0817
62 | CACCTCCG | -0.018
63 | CGAATTTC | 0.137
64 | CACTAGAA | -0.0145
65 | CCGGCGGC | -0.197
66 | CCACAAGA | 0.0312
67 | CACGACAC | -0.113
68 | AGACACAC | -0.0349
69 | GGATAAAA | 0.109
70 | ATAGCATG | 0.00622
71 | ATGTTGTC | 0.124
72 | CGAACCCC | 0.197
73 | AGGTGCGC | -0.0417
74 | CTGAACCC | 0.218
75 | CCAACGAA | 0.0181

Taken from above.
Entry of CACGGGCC under PBM E-score: -0.157
Entry of CGAACCCC under PBM E-score: 0.197

(listing goes on)

Row | Sequence | PBM E-score
76 | GAAGTTCC | -0.0696
77 | GTACTCCA | -0.0188
78 | GAATTCTA | 0.154
79 | AAGTAACC | -0.0437
80 | GCGACAAC | 0.105
81 | ATGCGTCA | -0.0453
82 | GCCTAATA | -0.00098
83 | CCTCATTC | -0.0122
84 | TAGACCGA | -0.0381
85 | CTATAAAA | -0.0779
86 | ATCGTATG | 0.0645
87 | CCTTCCCA | -0.0778
88 | AGTGGGAT | 0.189
89 | AAGACCCA | -0.181
90 | GCACACGC | -0.0698
91 | AAATAACA | 0.166
92 | CTAATACA | 0.0806
93 | GATACGGC | -0.296
94 | TAATCTAA | -0.0332
95 | CCAGAAGC | -0.0649
96 | ATAGCCCC | -0.167
97 | GCCAAGCA | -0.0136
98 | CAGATCAA | 0.046
99 | CCATCAAA | 0.0552
100 | GTATCATA | 0.251

Some of the entries above, set out differently.
Row	Sequence	PBM E-score
60	CCTTTGGC	-0.0852
61	ATCTAGCG	-0.0817
62	CACCTCCG	-0.018
63	CGAATTTC	0.137
64	CACTAGAA	-0.0145
65	CCGGCGGC	-0.197

Next records

Row | Sequence | PBM E-score
101 | CTGGACTC | -0.0788
102 | AAGCCTTC | -0.183
103 | CGGTGAAG | -0.222
104 | ACGTCAGA | -0.0813
105 | CAAGTCGC | -0.0924
106 | CCATCTCA | -0.0134
107 | ACCTTCAA | -0.222
108 | ACGAGCAC | 0.0475
109 | AGAAATTG | 0.119
110 | GGCCTATA | -0.266
111 | CCATCGCA | -0.0171
112 | CTACTCTC | -0.0448
113 | ATACGCTC | 0.106
114 | AGTGCGGC | 0.0106
115 | AATTTTAG | -0.0248
116 | CGTTGGTC | -0.0935
117 | CCTTTCGC | 0.108
118 | ACTCCTAT | -0.134
119 | CACCGTAG | -0.0924
120 | CGGGTACA | -0.0794
121 | CGCCCGCG | 0.0878
122 | CTCCGGGA | -0.202
123 | AGATGCGA | 0.143
124 | CCAAGAGA | -0.14
125 | CATCTGCG | 0.0643

Row | Sequence | PBM E-score
126 | CGTTTTGA | 0.12
127 | AGTTGAAA | -0.0291
128 | CCAGTGGA | -0.0548
129 | CCGACAAG | -0.0391
130 | ATATGTGA | 0.0921
131 | CCCTCTCC | -0.243
132 | CTTCACAC | 0.0494
133 | ATAGTAGG | 0.0354
134 | AGGTTCAA | 0.00542
135 | CTGTGCGC | -0.0545
136 | TACCTAAA | -0.0138
137 | GGGCGGAC | -0.254
138 | ATAACTGA | 0.122
139 | TGGCACAA | 0.0248
140 | GTTGAAAC | 0.0316
141 | ACATTACT | -0.0152
142 | GAGTAATA | 0.232
143 | CCATTAAC | 0.0566
144 | AGACTCTC | -0.145
145 | TCGTGGAA | 0.171
146 | CGAGATTA | 0.252
147 | AAGAAGCC | 0.162
148 | AACGTCAT | -0.0964
149 | AGTTAGGC | -0.0404
150 | AGCATCAA | 0.129

Row | Sequence | PBM E-score
151 | ACGTCCGG | -0.139
152 | CACTTGTC | 0.0228
153 | GGGCTTTA | -0.211
154 | ACGCTGAA | -0.149
155 | CTAGCCGA | 0.0809
156 | GCGCCTCC | -0.202
157 | TAACTCCA | -0.0545
158 | AAGACCGT | -0.264
159 | CTTATGGC | -0.0261
160 | GTCCAACA | 0.0526
161 | CTCGCTGC | 0.178
162 | AGTCCCGA | -0.109
163 | ACCTAAGG | -0.0627
164 | ATGGGATG | -0.056
165 | CTGGCACA | -0.0575
166 | ATTTTCGC | 0.131
167 | GCGTAGTA | 0.00603
168 | AATAGCAC | -0.226
169 | CAAATGAC | 0.0271
170 | GTCATCAA | -0.0631
171 | GCCAGGCC | 0.0129
172 | AACTCAAC | 0.132
